Results reported in article PMC5974087.
These are yes or no findings as the source states them, for the method shown. Binding seen in cells or lysates may run through a third protein. Some results given as binding are weak or reduced against the parent protein; the word gives no strength. For some assays here: Where a sequence is shown, tags or fusion partners need not be part of it.

By UniProt entry, the sequences of proteins in these tests, tags left out. Residues count along the entry.
UniProt O75334: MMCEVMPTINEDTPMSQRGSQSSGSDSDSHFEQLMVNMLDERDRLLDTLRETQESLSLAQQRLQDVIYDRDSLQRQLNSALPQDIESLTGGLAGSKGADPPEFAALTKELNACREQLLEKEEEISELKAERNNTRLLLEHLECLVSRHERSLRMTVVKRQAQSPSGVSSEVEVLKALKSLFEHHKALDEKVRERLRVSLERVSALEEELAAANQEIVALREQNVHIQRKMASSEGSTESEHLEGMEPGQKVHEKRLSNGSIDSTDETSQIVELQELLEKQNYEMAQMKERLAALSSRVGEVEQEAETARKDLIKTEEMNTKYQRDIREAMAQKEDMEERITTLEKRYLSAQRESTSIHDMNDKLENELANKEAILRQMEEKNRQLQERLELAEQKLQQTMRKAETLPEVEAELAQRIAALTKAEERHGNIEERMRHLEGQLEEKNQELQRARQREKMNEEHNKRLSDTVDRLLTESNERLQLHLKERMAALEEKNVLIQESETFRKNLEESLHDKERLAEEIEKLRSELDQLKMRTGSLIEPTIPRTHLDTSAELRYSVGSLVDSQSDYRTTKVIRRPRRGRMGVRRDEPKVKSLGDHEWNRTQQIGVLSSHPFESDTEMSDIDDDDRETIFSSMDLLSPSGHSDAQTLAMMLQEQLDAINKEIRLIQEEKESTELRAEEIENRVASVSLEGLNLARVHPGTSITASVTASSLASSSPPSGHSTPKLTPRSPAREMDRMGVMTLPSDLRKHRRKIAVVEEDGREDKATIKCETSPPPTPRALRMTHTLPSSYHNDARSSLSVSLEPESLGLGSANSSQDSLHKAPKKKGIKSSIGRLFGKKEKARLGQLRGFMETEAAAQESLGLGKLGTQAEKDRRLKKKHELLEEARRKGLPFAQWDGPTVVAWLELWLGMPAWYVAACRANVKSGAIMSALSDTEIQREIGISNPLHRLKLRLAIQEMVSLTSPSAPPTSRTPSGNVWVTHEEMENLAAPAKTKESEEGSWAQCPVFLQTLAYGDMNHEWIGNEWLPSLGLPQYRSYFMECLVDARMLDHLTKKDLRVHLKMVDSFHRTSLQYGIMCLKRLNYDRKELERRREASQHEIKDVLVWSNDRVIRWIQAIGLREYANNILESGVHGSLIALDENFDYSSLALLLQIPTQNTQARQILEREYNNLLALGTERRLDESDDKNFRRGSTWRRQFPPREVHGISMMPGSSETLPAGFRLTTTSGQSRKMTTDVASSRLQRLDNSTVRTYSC
UniProt Q13332, residues 30-1948: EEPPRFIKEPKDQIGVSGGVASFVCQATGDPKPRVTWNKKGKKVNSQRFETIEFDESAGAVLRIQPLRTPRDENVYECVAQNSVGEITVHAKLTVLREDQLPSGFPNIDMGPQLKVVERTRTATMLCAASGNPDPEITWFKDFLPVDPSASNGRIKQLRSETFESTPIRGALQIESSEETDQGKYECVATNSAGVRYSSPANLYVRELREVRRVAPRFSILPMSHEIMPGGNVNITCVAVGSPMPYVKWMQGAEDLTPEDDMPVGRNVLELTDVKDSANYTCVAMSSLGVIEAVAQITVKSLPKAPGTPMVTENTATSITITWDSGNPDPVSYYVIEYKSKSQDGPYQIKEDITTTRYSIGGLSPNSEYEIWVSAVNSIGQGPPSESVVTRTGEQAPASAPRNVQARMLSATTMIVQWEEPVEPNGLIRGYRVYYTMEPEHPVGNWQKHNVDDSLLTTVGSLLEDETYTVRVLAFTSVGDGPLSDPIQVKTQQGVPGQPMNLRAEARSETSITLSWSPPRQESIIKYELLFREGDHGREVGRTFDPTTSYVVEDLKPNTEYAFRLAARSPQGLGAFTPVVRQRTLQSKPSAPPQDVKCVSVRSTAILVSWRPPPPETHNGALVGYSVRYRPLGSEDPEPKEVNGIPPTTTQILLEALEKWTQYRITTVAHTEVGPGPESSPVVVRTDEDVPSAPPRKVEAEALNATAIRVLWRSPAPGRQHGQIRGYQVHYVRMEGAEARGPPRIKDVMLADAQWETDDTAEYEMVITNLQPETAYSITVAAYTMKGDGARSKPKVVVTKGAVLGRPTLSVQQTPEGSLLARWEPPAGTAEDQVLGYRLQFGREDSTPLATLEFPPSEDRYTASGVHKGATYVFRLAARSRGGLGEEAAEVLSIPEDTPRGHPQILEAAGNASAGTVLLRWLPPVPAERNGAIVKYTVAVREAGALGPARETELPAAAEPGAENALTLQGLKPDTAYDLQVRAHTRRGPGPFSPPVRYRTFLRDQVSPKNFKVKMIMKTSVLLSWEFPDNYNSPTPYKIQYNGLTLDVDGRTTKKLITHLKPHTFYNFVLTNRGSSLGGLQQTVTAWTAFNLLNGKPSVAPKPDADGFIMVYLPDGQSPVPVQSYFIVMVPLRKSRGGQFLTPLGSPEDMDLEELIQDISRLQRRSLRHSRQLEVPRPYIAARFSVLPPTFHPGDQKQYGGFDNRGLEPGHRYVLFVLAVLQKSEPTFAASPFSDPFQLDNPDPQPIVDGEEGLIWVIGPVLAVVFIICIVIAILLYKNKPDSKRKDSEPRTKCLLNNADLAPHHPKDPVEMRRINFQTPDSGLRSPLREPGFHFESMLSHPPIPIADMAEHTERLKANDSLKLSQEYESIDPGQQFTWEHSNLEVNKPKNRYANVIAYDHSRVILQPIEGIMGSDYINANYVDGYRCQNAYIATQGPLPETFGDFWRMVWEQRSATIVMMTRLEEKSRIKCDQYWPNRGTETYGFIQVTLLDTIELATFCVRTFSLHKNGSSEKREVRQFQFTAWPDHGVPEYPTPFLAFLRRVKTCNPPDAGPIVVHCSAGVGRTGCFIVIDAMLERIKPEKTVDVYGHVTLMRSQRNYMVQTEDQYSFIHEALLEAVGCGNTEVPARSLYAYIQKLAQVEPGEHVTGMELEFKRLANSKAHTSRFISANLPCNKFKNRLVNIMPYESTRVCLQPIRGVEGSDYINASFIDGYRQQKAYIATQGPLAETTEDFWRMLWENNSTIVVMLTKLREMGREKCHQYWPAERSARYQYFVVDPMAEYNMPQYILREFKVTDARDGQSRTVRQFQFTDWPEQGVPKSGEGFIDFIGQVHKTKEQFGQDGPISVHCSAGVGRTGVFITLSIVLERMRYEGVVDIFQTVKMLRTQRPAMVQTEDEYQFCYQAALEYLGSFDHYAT
UniProt Q86UR5: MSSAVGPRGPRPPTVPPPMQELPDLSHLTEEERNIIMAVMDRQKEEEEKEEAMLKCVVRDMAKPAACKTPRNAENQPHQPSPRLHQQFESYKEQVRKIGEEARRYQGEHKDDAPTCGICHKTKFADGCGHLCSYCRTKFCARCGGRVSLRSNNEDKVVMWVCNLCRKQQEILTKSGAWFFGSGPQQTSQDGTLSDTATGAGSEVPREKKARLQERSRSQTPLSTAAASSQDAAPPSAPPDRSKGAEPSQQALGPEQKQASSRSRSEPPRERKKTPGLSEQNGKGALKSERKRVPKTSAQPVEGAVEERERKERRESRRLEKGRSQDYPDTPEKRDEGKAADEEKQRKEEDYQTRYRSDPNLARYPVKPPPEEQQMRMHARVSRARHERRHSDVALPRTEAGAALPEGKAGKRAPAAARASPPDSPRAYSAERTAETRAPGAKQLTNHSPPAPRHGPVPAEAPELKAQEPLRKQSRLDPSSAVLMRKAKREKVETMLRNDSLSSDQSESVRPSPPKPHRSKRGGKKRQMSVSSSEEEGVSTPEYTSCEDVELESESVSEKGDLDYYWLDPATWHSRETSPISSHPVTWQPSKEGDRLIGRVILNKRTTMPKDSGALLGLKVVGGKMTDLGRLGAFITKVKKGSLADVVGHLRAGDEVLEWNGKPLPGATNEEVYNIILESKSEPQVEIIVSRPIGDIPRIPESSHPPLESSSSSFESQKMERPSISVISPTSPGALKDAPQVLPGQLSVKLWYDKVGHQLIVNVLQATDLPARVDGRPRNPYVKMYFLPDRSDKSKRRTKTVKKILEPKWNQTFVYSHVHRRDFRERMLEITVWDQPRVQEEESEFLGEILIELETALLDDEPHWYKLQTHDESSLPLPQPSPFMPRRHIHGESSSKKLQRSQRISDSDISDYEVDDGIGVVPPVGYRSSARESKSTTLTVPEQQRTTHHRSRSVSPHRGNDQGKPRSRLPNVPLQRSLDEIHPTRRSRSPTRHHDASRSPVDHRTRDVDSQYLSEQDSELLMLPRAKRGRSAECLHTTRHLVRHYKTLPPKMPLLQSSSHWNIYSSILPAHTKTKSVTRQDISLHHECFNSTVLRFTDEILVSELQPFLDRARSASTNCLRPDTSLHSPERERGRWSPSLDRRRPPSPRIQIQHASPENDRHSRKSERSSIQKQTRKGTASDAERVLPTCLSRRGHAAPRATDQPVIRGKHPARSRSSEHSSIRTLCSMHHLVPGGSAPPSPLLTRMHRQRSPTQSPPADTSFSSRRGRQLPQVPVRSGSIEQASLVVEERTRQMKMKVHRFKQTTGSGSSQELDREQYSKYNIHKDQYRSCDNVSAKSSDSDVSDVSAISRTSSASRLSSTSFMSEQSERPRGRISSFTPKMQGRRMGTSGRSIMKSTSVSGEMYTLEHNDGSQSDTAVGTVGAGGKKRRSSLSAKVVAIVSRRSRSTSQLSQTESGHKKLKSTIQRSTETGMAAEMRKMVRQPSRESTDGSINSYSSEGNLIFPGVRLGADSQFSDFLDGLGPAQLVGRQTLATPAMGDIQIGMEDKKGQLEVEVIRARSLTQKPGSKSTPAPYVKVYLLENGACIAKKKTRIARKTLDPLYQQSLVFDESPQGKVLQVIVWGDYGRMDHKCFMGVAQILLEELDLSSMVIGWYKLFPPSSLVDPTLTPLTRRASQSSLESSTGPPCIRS
UniProt Q13136: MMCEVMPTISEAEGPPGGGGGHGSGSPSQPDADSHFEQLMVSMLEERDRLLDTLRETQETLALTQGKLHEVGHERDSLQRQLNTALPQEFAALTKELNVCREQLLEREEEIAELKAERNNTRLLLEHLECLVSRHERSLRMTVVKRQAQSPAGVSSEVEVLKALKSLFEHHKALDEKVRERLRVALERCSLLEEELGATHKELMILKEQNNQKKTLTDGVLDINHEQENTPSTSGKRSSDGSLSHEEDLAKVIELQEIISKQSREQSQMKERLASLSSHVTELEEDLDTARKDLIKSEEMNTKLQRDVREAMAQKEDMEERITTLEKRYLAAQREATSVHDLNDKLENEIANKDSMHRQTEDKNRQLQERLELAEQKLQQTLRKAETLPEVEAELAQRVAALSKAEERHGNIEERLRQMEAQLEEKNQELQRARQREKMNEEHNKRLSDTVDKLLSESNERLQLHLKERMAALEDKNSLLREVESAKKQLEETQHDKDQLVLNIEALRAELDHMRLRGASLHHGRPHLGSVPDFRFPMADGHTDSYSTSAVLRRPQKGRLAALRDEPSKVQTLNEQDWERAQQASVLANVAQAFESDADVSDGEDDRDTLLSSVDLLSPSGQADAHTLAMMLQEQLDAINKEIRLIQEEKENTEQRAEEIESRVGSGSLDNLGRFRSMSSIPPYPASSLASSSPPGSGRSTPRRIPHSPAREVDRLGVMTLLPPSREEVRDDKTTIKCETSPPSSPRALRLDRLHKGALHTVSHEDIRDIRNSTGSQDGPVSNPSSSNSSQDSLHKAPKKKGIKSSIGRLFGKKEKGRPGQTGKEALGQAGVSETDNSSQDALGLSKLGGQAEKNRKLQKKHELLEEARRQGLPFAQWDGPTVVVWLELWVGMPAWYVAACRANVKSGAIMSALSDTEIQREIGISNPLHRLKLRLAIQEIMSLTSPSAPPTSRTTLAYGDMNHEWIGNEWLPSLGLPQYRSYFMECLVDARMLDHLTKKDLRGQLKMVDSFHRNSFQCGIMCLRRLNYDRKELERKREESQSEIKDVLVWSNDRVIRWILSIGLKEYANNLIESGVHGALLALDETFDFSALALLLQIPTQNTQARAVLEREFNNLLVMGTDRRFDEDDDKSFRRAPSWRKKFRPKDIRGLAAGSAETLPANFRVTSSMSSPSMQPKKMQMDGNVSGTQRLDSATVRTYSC

How the values were obtained:
[1] = target: T1, PIH1D2, LUMIER fusion (human) (UniProt Q8WWB5); test: co-IP; LUMIER: RL fusion (prey) and 3xFLAG-FFL fusion (bait) transiently expressed in HEK293, anti-FLAG coated wells, HNTG buffer, 3 h at 4 °C; co-IP efficiency from luciferase activities
T1 sequence: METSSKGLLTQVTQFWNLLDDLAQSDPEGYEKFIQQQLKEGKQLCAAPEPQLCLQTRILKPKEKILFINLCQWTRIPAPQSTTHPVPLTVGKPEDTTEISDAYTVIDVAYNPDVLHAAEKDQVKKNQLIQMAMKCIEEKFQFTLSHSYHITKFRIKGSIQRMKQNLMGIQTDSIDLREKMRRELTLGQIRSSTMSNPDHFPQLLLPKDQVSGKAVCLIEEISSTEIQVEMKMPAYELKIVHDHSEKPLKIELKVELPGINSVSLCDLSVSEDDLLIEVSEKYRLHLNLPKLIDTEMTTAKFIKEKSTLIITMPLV

[2] = target: FLAG-FFL-liprin-α2 (human) (UniProt O75334); test: co-IP; LUMIER in HeLa and HeLa-PIH1D2 cells: FLAG-FFL-liprin-α2 bait, RL-tagged partners as prey
[3] = target: T2, SPAG1, LUMIER fusion (human) (UniProt Q07617); test: co-IP; LUMIER: RL fusion (prey) and 3xFLAG-FFL fusion (bait) transiently expressed in HEK293, anti-FLAG coated wells, HNTG buffer, 3 h at 4 °C; co-IP efficiency from luciferase activities
T2 sequence: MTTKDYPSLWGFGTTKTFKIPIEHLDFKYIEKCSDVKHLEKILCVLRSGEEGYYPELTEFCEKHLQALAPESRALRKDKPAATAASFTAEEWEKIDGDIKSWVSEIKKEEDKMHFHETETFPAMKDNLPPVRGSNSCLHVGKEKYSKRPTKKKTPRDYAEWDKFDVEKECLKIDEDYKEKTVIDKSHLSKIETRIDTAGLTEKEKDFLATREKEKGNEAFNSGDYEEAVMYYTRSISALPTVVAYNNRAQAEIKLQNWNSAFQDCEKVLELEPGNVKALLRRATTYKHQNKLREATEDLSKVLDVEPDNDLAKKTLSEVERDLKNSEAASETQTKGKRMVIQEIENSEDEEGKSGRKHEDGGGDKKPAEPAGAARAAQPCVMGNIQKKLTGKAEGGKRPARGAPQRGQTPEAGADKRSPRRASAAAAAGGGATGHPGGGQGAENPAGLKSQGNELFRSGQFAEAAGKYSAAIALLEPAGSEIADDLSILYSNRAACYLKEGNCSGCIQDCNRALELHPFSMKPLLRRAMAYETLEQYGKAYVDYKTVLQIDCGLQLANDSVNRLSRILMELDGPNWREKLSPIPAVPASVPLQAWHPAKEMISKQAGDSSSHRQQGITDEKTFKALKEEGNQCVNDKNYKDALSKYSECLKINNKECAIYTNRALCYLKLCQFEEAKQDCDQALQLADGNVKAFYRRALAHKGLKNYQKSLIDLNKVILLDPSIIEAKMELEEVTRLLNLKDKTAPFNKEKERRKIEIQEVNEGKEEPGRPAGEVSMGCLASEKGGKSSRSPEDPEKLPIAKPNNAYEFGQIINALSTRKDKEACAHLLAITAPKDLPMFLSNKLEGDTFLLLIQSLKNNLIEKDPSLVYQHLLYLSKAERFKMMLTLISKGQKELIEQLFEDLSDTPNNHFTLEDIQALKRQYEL

Substance | binding [1] | binding [2] | binding [3]
FLAG-FFL-liprin-α2 (from UniProt O75334 1-1257) | binds | – | –
PTPRS, LUMIER fusion (from UniProt Q13332 30-1948) | – | binds | –
RIMS1, LUMIER fusion (from UniProt Q86UR5 1-1692) | – | binds | binds
liprin-α1, LUMIER fusion (from UniProt Q13136 1-1202) | – | binds | –
